PubChem BioAssay AID1224829, NIAID, 2016
The deposit covers about 3,800 reagents; shown is a part drawn at random. 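Calls cover raised and lowered translocation; gene median uses one vendor's three siRNAs; qiagen siRNAs acted more weakly than ambion siRNAs.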 Unmarked entries are inactive. Reagents against one gene are numbered here. Not all columns of the deposit are shown. Reagent sequences are not shown.

Aim: 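Secondary check of hits that alter LPS-induced p65 translocation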 (follow-up of hits)
System: mouse RAW264.7 G9 macrophage reporter cells
Knock-down reagent: single siRNA against mouse genes, 100 nM
Time to read-out: 2 days of siRNA knock-down, then 40 min of LPS before fixing
Conditions: LPS (Salmonella minnesota R595) at 10 ng/ml
Measured: 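High-content images after 40 min LPS exposure; GFP-p65 nucleus to surrounding ring signal ratio, normalised to plate median and non-targeting control wells, expressed as z-score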
Scale: p65 translocation z-score: higher = more nuclear NF-kappaB p65 after LPS
Call rule: 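Active means the replicate-mean z-score lies beyond plus or minus 2, in either direction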
Meaning of the calls: active = changed p65 translocation (either direction); inactive = no clear change

Gene	reagent	siRNA vendor or control pool	p65 translocation z-score, replicate mean
Or2y1g	1	ambion single siRNA	-0.318
Or2y1g	2	ambion single siRNA	-1.28
Or2y1g	3	ambion single siRNA	-0.686
Or2y1g	4	qiagen single siRNA	-0.0567
Or2y1g	5	qiagen single siRNA	0.721
Or2y1g	6	qiagen single siRNA	-9.88 (active)
Eif3f	1	ambion single siRNA	-2.37 (active)
Eif3f	2	ambion single siRNA	1.06
Eif3f	3	ambion single siRNA	-4.87 (active)
Eif3f	4	qiagen single siRNA	-2.03 (active)
Eif3f	5	qiagen single siRNA	-2.15 (active)
Eif3f	6	qiagen single siRNA	0.161
Klhdc3	1	ambion single siRNA	-0.531
Klhdc3	2	ambion single siRNA	0.266
Klhdc3	3	ambion single siRNA	-2.94 (active)
Klhdc3	4	qiagen single siRNA	4.43 (active)
Klhdc3	5	qiagen single siRNA	2.49 (active)
Klhdc3	6	qiagen single siRNA	1.27
1700001G17Rik	1	ambion single siRNA	-1.93
1700001G17Rik	2	ambion single siRNA	-3.98 (active)
1700001G17Rik	3	ambion single siRNA	3.8 (active)
1700001G17Rik	4	qiagen single siRNA	2.22 (active)
1700001G17Rik	5	qiagen single siRNA	1.07
1700001G17Rik	6	qiagen single siRNA	0.145

Looked up above:
Eif3f #5, siRNA vendor or control pool qiagen single siRNA, p65 translocation z-score, replicate mean → -2.15 (active)
Under “p65 translocation z-score, replicate mean”, Or2y1g #6, siRNA vendor or control pool qiagen single siRNA is entered as -9.88 (active)
